# About 210 (0.4%) of roughly 52,000 sequences were called active.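 The calls were made as follows: active = gene whose silencing raises cell survival under the drug, median off-target-corrected z-score across its silencing RNAs 2 or more; inactive = the rest.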 Some of the results follow.
# Assay: Resistance to Poly (ADP-Ribose) Polymerase inhibitor: Gene Identification via Genome-wide siRNA Screen
# Settings: mouse BRCA2 R2336H ES cells, olaparib, CellTiter-Glo viability; stronger effect = higher value
# Outline: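 Genome-wide siRNA screen (3 siRNAs/gene, 20 nM) in mouse ES cells carrying hypomorphic BRCA2 R2336H; olaparib 500 nM added 48 h post-transfection, CellTiter-Glo viability 72 h later. Normalized to plate-median negative control; MAD z-scores, gene median, seed-adjusted.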
row,Sequence,z-score
1,UGCAGUGCACUGUACUACATT against Ssxb2,inactive: 1.16
2,CCAAGUUGGCAUACUAUUCTT against Pank4,inactive: 1.33
3,GGCUCUGAGAUCUAUGAAATT against 2610510B01Rik,inactive: 0.652
4,GGCCAUUUUGCCUAAGAAGTT against 1810008A18Rik,inactive: 0.984
5,GCAUAAGCGAAGAAGAAGUTT against Clk2,inactive: -0.197
6,GGUGUGUAACAAGGCCUUCTT against Zfp339,inactive: 1.65
7,GGAGAAGAUGCUGUCUUGCTT against Kif21b,inactive: -1.81
8,GGUCGGAAGAAUCUAAAGGTT against Dmp1,inactive: 0.0661
9,CCCUCUGUGGUUAAAGACUTT against 0610012D17Rik,inactive: -0.506
10,CCUACCUGAUCGUUCCUUATT against 1110007C02Rik,inactive: -0.256
11,GGCUACCUUCUACCUAAGGTT against Cyp2g1,inactive: 0.855
12,GCAGAAUCGCUUCAGUUCUTT against 1810015P03Rik,inactive: 0.0076
13,GGGAAGAAUGGACAAAUAATT against 1810057C19Rik,inactive: -1.46
14,GGAGAUUGGACCACUAUGATT against Sec24d,inactive: -0.273
15,GGAUUCUCCAGACACCUUGTT against 1700011C14Rik,inactive: -0.514
16,GGUAAAUGGCACACGUAGUTT against Hint1,inactive: -0.229
17,GGAGACUAGCACACAAAUATT against Nt5c,inactive: -0.898
18,GGCAAUUCUUAACCUGUCCTT against Tacc1,inactive: -0.249
19,CCAAAUUUGAGAGCAUAAGTT against 3632451O06Rik,inactive: -1.6
20,GGACAACCGAUGAAUUUCGTT against C630015F21Rik,inactive: -0.417
21,GGGAUUGGGUUCCAAUCUUTT against Ugalt2,inactive: 0.273
22,GCAGUUGAGUCCACCUCAATT against 4932418E24Rik,inactive: -0.217
23,GCCACCUCAUGAAUAAAAGTT against Cd8b,inactive: 0.736
24,GGUCCAUAACUUGUGUGCUTT against 3300002I08Rik,inactive: -0.311
25,CCUGACUUCUACUAAAGAATT against AI480653,inactive: -0.219
26,CCUACGUGAACAUGACGGUTT against Hrb,inactive: 1.39

row,Sequence,z-score
1,GCAUGGUAUCAGGUACAUATT against BC019367,inactive: 1.43
2,CCAGCUGUGUAACACUACCTT against Gfi1,inactive: 0.0736
3,GCAUAAGCCUAAAAAUUCUTT against Ptprd,inactive: 0.47
4,CCGCCAUAUGUAUCACAGCTT against Rpl19,inactive: -2.12
5,GGUCAGAUGUGGAGAAAGGTT against Ufd1l,inactive: -3.04
6,GGCAAGAAGUGCACUGUAUTT against Rac3,inactive: 0.901
7,GCAGAUACUAGAGUUGUUUTT against Papd4,inactive: 1.28
8,GGAGUUUCUGGAUGGUGGUTT against 2810405K02Rik,inactive: -1.22
9,GGUGGCAGAGGAUAUGUUUTT against Acbd4,inactive: -0.129
10,GGAUGCAUGAGAAAUGUUATT against Tbc1d14,inactive: 0.295
11,GGCCAACUAGGGUGUUUGUTT against Tsx,inactive: -0.532
12,GGCUACCACACAUACCAAATT against Stra6,inactive: -0.124
13,CCUCUCCAUCUUUGACAUGTT against Olfr963,inactive: -0.366
14,GGACACUGCAAAAGAGGAGTT against Defcr4,inactive: 0.714
15,GCCUUAUUACUGACCUUUUTT against Smarcd2,inactive: 1.1
16,GGCAUGGAAGGGUUGGAUATT against Polk,inactive: 1.25
17,GGUAAAUGCUGACUGUGAUTT against Cilp,inactive: -0.162
18,GGCGAUCGAGCCCUACAAATT against Bnip2,inactive: -1.35
19,GCAAGUAGAUUGUCUCGAGTT against Scd1,inactive: 0.223
20,GCCAUCUGCUUUAACCUCUTT against Aebp2,inactive: 4
21,GCUAUGAAGAUUCGAUUAATT against Rpa1,inactive: -2.34
22,GGCCCUUCUACAGAAGUUCTT against AI132321,inactive: 0.942
23,GGUUGAAUACGAAGGCUUATT against Bicd1,inactive: -0.751
24,GGUGAUGUAAGCGUGAUUATT against 1700065O13Rik,inactive: 0.522
25,GCUGUACACAAGUUGACCCTT against Fndc3,inactive: 0.351
26,GGGUUGAACCUAAAGUCUATT against 4921521F21Rik,inactive: -0.576

row,Sequence,z-score
1,CCCUCCUCCAGCAUAUGAATT against Fbxl18,inactive: -0.72
2,GGAAUAUCUUCUCAAGUCUTT against A230102I05Rik,inactive: 0.97
3,CCCUAAGGAGUUUUGCGUUTT against Zfpn1a4,inactive: -0.176
4,GCUACAGGGAAAAAGUUCCTT against Olfr994,inactive: 0.246
5,GGUGCAUUUAUGUAUUUCCTT against Olfr916,inactive: -2.2
6,GGGUCUCAACAAAAUCAGUTT against Gli3,inactive: 0.193
7,GGCAACUUCAUUGUGAAGGTT against Man2b1,inactive: -0.632
8,GGCUACACUCUGACAGCACTT against Znhit2,inactive: 0.224
9,CCUGGAACAUAGAUGUAUATT against AU020939,inactive: -1.2
10,GGACUAUGGUGGGAACUAGTT against Tas2r119,inactive: 0.384
11,GGAAAAAAAAAAGCAGUGATT against Phactr4,inactive: 0.493
12,GGGACAUCAGAUUAUUCAUTT against Zfp87,inactive: 0.137
13,GCUAAGUUUCACCCAAAGGTT against A930010I20Rik,inactive: -0.853
14,GGCCAUUGUUGAAAUGUACTT against Myh14,inactive: 0.415
15,GGGAAGCUUUACUUUUUAATT against Mapk4,inactive: 0.465
16,GGAAGUUUUUCCAAGAAGATT against Acadl,inactive: 1.65
17,GGUAGCUUAUUGCUAAGGCTT against Pnn,inactive: 1.06
18,GGAAACCAGACUUUCCCUATT against V1ra5,inactive: -0.806
19,GCGAUAAAACCCUAAAGCUTT against 1500041N16Rik,inactive: 0.664
20,GCCUAACAUUGAUAUGUUGTT against Abhd9,inactive: 1.06
21,GGUGAAGGCCAAUACAUAUTT against Gatm,inactive: 0.628
22,GGCUAUGAAAGUGACAAUCTT against 5730449L18Rik,inactive: -1.56
23,GGAACAGCUGAACUGCUCATT against D15Ertd735e,inactive: 0.882
24,GGUACCUUCAAAGAAUUGUTT against Snx1,inactive: 0.481
25,CCUUGCUGUUCUACUUUGCTT against Olfr1309,inactive: -1.95
26,GCAGUAGAUCCUGAUUUUGTT against MGC92959,inactive: 0.827

# A stretch from the list above:
row,Sequence,z-score
1,CCCUCCUCCAGCAUAUGAATT against Fbxl18,inactive: -0.72
2,GGAAUAUCUUCUCAAGUCUTT against A230102I05Rik,inactive: 0.97
3,CCCUAAGGAGUUUUGCGUUTT against Zfpn1a4,inactive: -0.176
4,GCUACAGGGAAAAAGUUCCTT against Olfr994,inactive: 0.246
5,GGUGCAUUUAUGUAUUUCCTT against Olfr916,inactive: -2.2
6,GGGUCUCAACAAAAUCAGUTT against Gli3,inactive: 0.193
7,GGCAACUUCAUUGUGAAGGTT against Man2b1,inactive: -0.632
8,GGCUACACUCUGACAGCACTT against Znhit2,inactive: 0.224
9,CCUGGAACAUAGAUGUAUATT against AU020939,inactive: -1.2
10,GGACUAUGGUGGGAACUAGTT against Tas2r119,inactive: 0.384
11,GGAAAAAAAAAAGCAGUGATT against Phactr4,inactive: 0.493
12,GGGACAUCAGAUUAUUCAUTT against Zfp87,inactive: 0.137
13,GCUAAGUUUCACCCAAAGGTT against A930010I20Rik,inactive: -0.853
14,GGCCAUUGUUGAAAUGUACTT against Myh14,inactive: 0.415
15,GGGAAGCUUUACUUUUUAATT against Mapk4,inactive: 0.465
16,GGAAGUUUUUCCAAGAAGATT against Acadl,inactive: 1.65
17,GGUAGCUUAUUGCUAAGGCTT against Pnn,inactive: 1.06
18,GGAAACCAGACUUUCCCUATT against V1ra5,inactive: -0.806
19,GCGAUAAAACCCUAAAGCUTT against 1500041N16Rik,inactive: 0.664
20,GCCUAACAUUGAUAUGUUGTT against Abhd9,inactive: 1.06
21,GGUGAAGGCCAAUACAUAUTT against Gatm,inactive: 0.628
22,GGCUAUGAAAGUGACAAUCTT against 5730449L18Rik,inactive: -1.56
23,GGAACAGCUGAACUGCUCATT against D15Ertd735e,inactive: 0.882
24,GGUACCUUCAAAGAAUUGUTT against Snx1,inactive: 0.481
25,CCUUGCUGUUCUACUUUGCTT against Olfr1309,inactive: -1.95
26,GCAGUAGAUCCUGAUUUUGTT against MGC92959,inactive: 0.827

# (cont.)

row,Sequence,z-score
1,GGCCAAGCUAUAAGAAAUGTT against Cntnap2,inactive: 1.97
2,GGAAAAAGCAAAUUGAGGATT against Uchl1,inactive: 2.65
3,GGACAAUAUCAGAAAGAGUTT against Purg,inactive: -0.519
4,GGUAAAAACUUUCCUUUAGTT against Rds,inactive: 0.0785
5,GGAUUAUGGCUUCAUUAAATT against Glmn,inactive: 0.468
6,GGUUUUCUAUGGAAGAGAUTT against Nope,inactive: 0.387
7,GGAUUCUUGCACUAUUUAGTT against BC062951,inactive: 0.0219
8,GGAAAUUGCACCUUUAAAGTT against Rnf130,inactive: 1.24
9,GCCGAGAUGGUCAUAAGCUTT against Rbbp5,inactive: -0.363
10,GGAAUCUCCCACUGUUUCCTT against Gpx2,inactive: -0.533
11,GGCUGACAGGGACCAAUAUTT against Trf,inactive: 0.372
12,GGAAGACGAAGAGUUUGGATT against Aqp5,inactive: -0.427
13,GGAACUCCGAGUAGACGUGTT against Smyd1,inactive: 0.336
14,GCAACAAUGAGAGACCACATT against Htr5a,inactive: 1.34
15,GGCAGUGGUGAUAUACCAATT against Lpd,inactive: -0.469
16,GGCUGUGGUGCUCAAUAAGTT against Clstn2,inactive: 0.495
17,GGAAAUCGCAUUUAUUGUUTT against Olfr1090,inactive: -0.171
18,GGAGCAAGAAAAGAAAGUGTT against Zfp354c,inactive: -0.305
19,GGGUUAUGUGUUGAGCUCCTT against Bub3,inactive: -1.33
20,GGAGUAUUAUGAAGUGUUGTT against Aip,inactive: -0.233
21,GGGUGCUGUCAACAUAUGATT against Gabrq,inactive: -0.0405
22,GGCAAUACGUGAAGAAAAATT against B930060C03,inactive: -0.926
23,CCUAGUUGAUACCUGUGGUTT against 1110055L24Rik,inactive: 0.707
24,GGACGAUUUGGGUCACCUUTT against Rabep1,inactive: -3.35
25,GCCUUCCUUUUUGUCAUUATT against Olfr1387,inactive: 1.62
26,GGAUUCGUCUAGGCUCGUATT against 5830461H18Rik,inactive: -1.61

# From PubChem BioAssay AID1347423 (Functional Genomics Laboratory (NCATS/FGL), 2020)
